# Measurements taken from PubChem BioAssay AID504834 (National Center for Advancing Translational Sciences (NCATS), 2011).
# About 22,000 (6.9%) of roughly 320,000 compounds were called active. The inconclusive results got no clear call from the source; some entries with a clear call stand among them for comparison. The call rests on the fitted dose curve; in most records, active means well fitted inhibition curve with a large enough effect; inconclusive means small, poorly fitted or top-dose-only effect, or another doubt; inactive means no such curve, though single readings can be large or run the other way. Potencies beside an inconclusive call are fits to weak or partial responses and may not hold up.
# Test: Primary qHTS for delayed death inhibitors of the malarial parasite plastid, 96 hour incubation
# Settings: P. falciparum luciferase reporter growth; series mostly up to 28.7 µM; activity change, negative = inhibition: at the top concentration
# How it was run: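 Delayed-death screen, second-generation endpoint: infected erythrocytes, 2% hematocrit, 0.05% parasitemia final; 96 hours at 37 C, 5% CO2; luciferase detection reagent; luminescence decrease equals reduced growth.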
# On the % scale 0 is the no-effect control and ±100 the full control effect; potency means the concentration at half of the fitted maximal effect.
SMILES,Potency,"activity change, negative = inhibition"
O=C(NCc1ccco1)C1(c2ccc(Cl)cc2)CCCC1,"inconclusive: 18.5 µM [inhibitor, single point]",
CCOc1ccc(Br)cc1CN(CC)CC,,inactive: 14%
CC(=O)Nc1ccc(Oc2nc(-c3ccccn3)nc3ccccc23)cc1,active: 11.7 µM,
COc1cccc(NC(=O)c2cc(-c3ccc(C)o3)nc3ccccc23)c1,,inactive: -42%
CCCCC(CC)C(=O)Nc1ccccc1C(=O)NC(C)C (centres undefined),"inconclusive: 9.28 µM [inhibitor, single point]",
CC(C)Cc1ccc(C(C)C(=O)OCC(=O)c2c[nH]c3ccccc23)cc1 (centres undefined),"inconclusive: 10.4 µM [inhibitor, single point]",
CCOc1cc(/C=N/Nc2nc3ccccc3[nH]2)cc(Br)c1OCC(=O)N(C)C,"inconclusive: 0.465 µM [inhibitor, full curve]",
COc1ccc(/C(O)=C2\C(=O)C(=O)N(c3cc(C)on3)C2c2ccccc2OC)cc1C (centres undefined),"inconclusive: 1.04 µM [inhibitor, full curve, poor fit]",
CN(C)CCNC(=O)c1cc2c(=O)n(C)c3ccccc3c2n1C,"inconclusive: 0.037 µM [inhibitor, full curve, poor fit]",
Cc1ccc2c(c1)C1CN(C)CCC1N2Sc1ccccc1[N+](=O)[O-] (centres undefined),active: 10.4 µM,
COc1ccc(Cl)cc1N/C(N)=N/c1nc(C)cc(C)n1,"inconclusive: 0.0928 µM [inhibitor, full curve, poor fit]",
CCCN(CC1CC1)C(=O)CSc1nnc(-c2cc(-c3cccs3)nc3ccccc23)o1,,inactive: -4.18%
CC1CN=C(NCCc2ccccc2)S1 (centres undefined),"inconclusive: 14.7 µM [inhibitor, single point]",
CN(C)c1ccc(N=Nc2ccc(S(=O)(=O)O)cc2)c2ccccc12,"inconclusive: 18.5 µM [inhibitor, single point]",
O=C(O)CCCCCNCc1ccncc1,"inconclusive: 2.33 µM [inhibitor, full curve]",
Cn1c(=O)c2c(=O)cc(NNC(=O)CC#N)[nH]c2n(C)c1=O,,inactive: -14.8%
CCOC(=O)C1=C(c2ccccc2)NC(N)=NC1c1ccc(OCc2ccc(Cl)cc2)c(OC)c1 (centres undefined),active: 1.65 µM,
Cc1ccc2nc(SCc3nc4c(cnn4-c4ccccc4)c(=O)[nH]3)[nH]c2c1,,inactive: -22.2%
Cc1ccccc1OCc1nc2ccc(S(=O)(=O)N3CCOCC3)cc2[nH]1,"inconclusive: 14.7 µM [inhibitor, partial curve, poor fit]",
Cc1nc2nc[nH]n2c(=O)c1NS(=O)(=O)c1ccc(F)cc1,"inconclusive: 13.1 µM [inhibitor, single point]",
Cc1cccc(CCNC(=O)c2cccc(N3CCCC3=O)c2)c1,"inconclusive: 18.5 µM [inhibitor, single point]",
COc1ccc(N2CCN(c3oc(COc4ccccc4Cl)nc3C#N)CC2)cc1,"inconclusive: 0.294 µM [inhibitor, partial curve, poor fit]",
Cc1ccc(S(=O)(=O)NCCC(=O)NCc2ccc3c(c2)OCO3)cc1C,,inactive: 1.82%

SMILES,Potency,"activity change, negative = inhibition"
COc1ccc(CCN2CCCC(CN(C)Cc3cccc(OC)c3)C2)cc1 (centres undefined),"inconclusive: 10.4 µM [inhibitor, partial curve]",
CCC(C)n1c(C)nc2c(c1=O)c1nc3ccccc3nc1n2-c1ccc2c(c1)OCCO2 (centres undefined),,inactive: -87.8%
CC(=O)Oc1cc2cccc(OC(C)=O)c(=O)c2c(OC(C)=O)c1OC(C)=O,active: 14.7 µM,
CCC(CC)C(=O)Nc1nnc(S(=O)(=O)Nc2ccc(OC)cc2)s1,,inactive: -13.6%
CCOC(=O)c1cnc(-n2nc(C)cc2C)nc1NNc1cc(-c2ccccc2)nc(C)n1,"inconclusive: 0.0037 µM [inhibitor, full curve, poor fit]",
Cc1cccc(COCCN2CCN(S(=O)(=O)c3ccccc3)CCC2=O)c1,active: 14.7 µM,
COc1ccc(-n2c(=S)[nH]c3cc(C(=O)Nc4ccc(C)c(F)c4)ccc3c2=O)c(OC)c1,,inactive: -17.1%
COc1ccc(C(=O)NNC(=O)CSc2ccccc2)cc1,,inactive: -5.58%
Cc1ccc(-n2c(C)nnc2SCC(=O)NC2CC2)cc1,,inactive: 11.5%
O=C(CSc1ccccn1)N/N=C/c1cc([N+](=O)[O-])ccc1O,"inconclusive: 10.4 µM [inhibitor, single point]",
CN1CCN(C(=O)c2cccc(S(=O)(=O)N3CCCCC3)c2)CC1,"inconclusive: 10.4 µM [inhibitor, single point]",
COc1ccc(N2CCN(C(=O)c3ccc(NS(=O)(=O)c4cccs4)cc3)CC2)cc1,"inconclusive: 0.0147 µM [inhibitor, full curve, poor fit]",
COc1ccccc1N1CCN(CC(=O)Nc2ccc(CN3CCCCC3)cc2)CC1,"inconclusive: 16.5 µM [inhibitor, partial curve, poor fit]",
CCOc1ccc2nc(NCCNC(=O)C3CC3)c(C)cc2c1,"inconclusive: 10.4 µM [inhibitor, single point]",
CCN(CC)c1ccc(N=Cc2c(O)n(CCc3ccc(OC)c(OC)c3)c(=O)[nH]c2=O)cc1,active: 10.4 µM,
C#CCSc1nc2ccccc2n1C(=O)c1ccc(S(=O)(=O)N2CCCCC2)cc1,"inconclusive: 1.04 µM [inhibitor, partial curve, poor fit]",
CCOc1cc(CNn2nnnc2N)cc(Cl)c1OCC(=O)NC(C)(C)C,"inconclusive: 8.28 µM [inhibitor, partial curve, poor fit]",
O=C1C2C3CCCC3=C3CCCC3C2C(=O)N1c1ccc(Cl)cc1 (centres undefined),"inconclusive: 18.5 µM [inhibitor, single point]",
O=C(NC(=O)c1ccccc1)OCC(F)(F)F,"inconclusive: 13.1 µM [inhibitor, single point]",
CCOC(=O)Cc1csc(N/C(=N/S(=O)(=O)c2ccc(Cl)cc2)c2ccccc2)n1,"inconclusive: 16.5 µM [inhibitor, partial curve, poor fit]",
CCO[C@H]1OC(C(=O)N2CCN(Cc3ccc4c(c3)OCO4)CC2)=C[C@@H](c2ccc(Br)cc2)[C@@H]1CCCO,active: 5.22 µM,
Cc1ccc(C(CC(=O)O)Nc2nc(N3CCCCC3)nc(N3CCCCC3)n2)cc1 (centres undefined),"inconclusive: 9.28 µM [inhibitor, partial curve, poor fit]",
CCOC(=O)c1cnc2ccc(Br)cc2c1NCCCN1CCOCC1,,inactive: 9.61%

# Structures from the list above that contain fluorine (3):
SMILES,Potency,"activity change, negative = inhibition"
Cc1nc2nc[nH]n2c(=O)c1NS(=O)(=O)c1ccc(F)cc1,"inconclusive: 13.1 µM [inhibitor, single point]",
COc1ccc(-n2c(=S)[nH]c3cc(C(=O)Nc4ccc(C)c(F)c4)ccc3c2=O)c(OC)c1,,inactive: -17.1%
O=C(NC(=O)c1ccccc1)OCC(F)(F)F,"inconclusive: 13.1 µM [inhibitor, single point]",

# Next part

SMILES,Potency,"activity change, negative = inhibition"
CCCc1cc(C(=O)N/N=C/c2ccc(CC)s2)c2ccccc2n1,"inconclusive: 13.1 µM [inhibitor, single point]",
CCCc1nc(NCCO)c(C#N)c2c1CCCC2,,inactive: -1.79%
COc1ccc(NC(=O)c2ccc(-n3c(C)ccc3C)cc2)c(OC)c1,"inconclusive: 9.28 µM [inhibitor, partial curve]",
CC(=O)c1c[nH]c(C(=O)NC2CCCCCC2)c1,"inconclusive: 2.33 µM [inhibitor, single point]",
CCCn1c(N)c(C(=O)CSc2nc3ncc(Cl)cc3[nH]2)c(=O)[nH]c1=O,"inconclusive: 9.28 µM [inhibitor, single point]",
CCCCNC(=O)N(O)C1N(CCCC)C(=O)N(CC(=O)OC)C1(C)C (centres undefined),active: 5.22 µM,
CCN1CCN(C(=O)c2ccc3c(c2)S(=O)(=O)c2ccccc2C3=O)CC1,,inactive: -23.2%
Cc1nn(C)cc1CN1CCC(CO)(CCOc2ccccc2)CC1,"inconclusive: 16.5 µM [inhibitor, single point]",
CCCCCCCCCCC(CO)CCCCCCCC (centres undefined),"inconclusive: 19 µM [inhibitor, single point]",
CCOc1ccc(OCCC(=O)Nc2ccc(F)cc2C)cc1,,inactive: 3.53%
O=C(c1ccc2oc(Cc3ccc(Cl)cc3)nc2c1)N1CCCCC1CCO (centres undefined),"inconclusive: 18.5 µM [inhibitor, single point]",
CCCCc1c(C)nc(N)[nH]c1=O,"inconclusive: 2.08 µM [inhibitor, partial curve, poor fit]",
CCOc1ccc(NC(=O)CC2SC(=O)N(c3ccccc3)C2=O)cc1 (centres undefined),"inconclusive: 10.4 µM [inhibitor, single point]",
CCCCN1CC(O)=C(c2nc(-c3ccc(Cl)cc3)cs2)C1=N,"inconclusive: 4.65 µM [inhibitor, partial curve, poor fit]",
Cc1ccc(NS(=O)(=O)c2ccc3c(c2)NC(=O)CC(=O)N3)cc1C,"inconclusive: 0.738 µM [inhibitor, full curve, poor fit]",
C=CCC1(C#N)C(SC)=NC2=C(C(=O)CC(C)(C)C2)C1c1ccc(Br)cc1 (centres undefined),"inconclusive: 0.828 µM [inhibitor, full curve]",
O=[N+]([O-])c1ccc(CN2CCCCCC2)cc1,"inconclusive: 18.5 µM [inhibitor, single point]",
CC1CC(C)CN(S(=O)(=O)c2cccc(C(=O)N3C(=O)c4cccc(N)c4C3=O)c2)C1 (centres undefined),"inconclusive: 2.94 µM [inhibitor, single point]",
COc1ccc(/C(C)=N/NC(=O)CNC(=O)Cc2ccccc2)c(OC)c1,,inactive: 54.3%
CCc1cccc(CC)c1NC(=O)CN1CCN(S(=O)(=O)c2ccccc2)CC1,,inactive: -0.336%
CCCc1cc(=O)[nH]c2nnc(SCC(=O)NC3CCCC3)n12,,inactive: 14.5%
CCOC(=O)C1C(=O)CC(C)(O)C(C(=O)OCC)C1c1cccc(OC(F)(F)C(F)F)c1 (centres undefined),"inconclusive: 18.5 µM [inhibitor, single point]",
O=C(CCc1nnc(COc2ccccc2)o1)NC1(c2ccccc2)CC1,"inconclusive: 0.0033 µM [inhibitor, full curve, poor fit]",
